# Measurements published in the supplement of paper PMC3334620.
# Whole data set: some 33,000 sequences, median “E-score (-0.5 to 0.5)” near -0.0059, cut for the highest 2% near 0.26. The list shows a part of the results.
# Target: T1, Cin5 (UniProt P40917)
# T1 sequence: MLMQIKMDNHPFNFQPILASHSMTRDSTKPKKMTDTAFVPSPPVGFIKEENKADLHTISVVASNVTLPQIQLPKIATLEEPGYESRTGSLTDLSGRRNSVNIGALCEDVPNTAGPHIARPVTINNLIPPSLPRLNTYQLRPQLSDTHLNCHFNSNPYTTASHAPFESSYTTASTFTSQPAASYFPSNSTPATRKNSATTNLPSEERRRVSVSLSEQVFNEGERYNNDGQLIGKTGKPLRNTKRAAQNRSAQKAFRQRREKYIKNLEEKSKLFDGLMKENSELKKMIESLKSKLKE
# Test: PBM E-score (8-mer binding enrichment) (E-score (-0.5 to 0.5)); higher = stronger / more preferred TF binding
# Conditions: protein concentration: 100 nM; construct: GST-full length
# Outline: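 Universal all-10-mer Agilent arrays, double-stranded by primer extension on fresh or once-stripped slides, were probed with about 100-200 nM GST-tagged yeast transcription factors made by PURExpress. Fluorescent anti-GST detected bound protein, and masliner normalised the scans. E-scores from the Universal PBM Analysis Suite were given to each ungapped eight-base word pooled with its reverse complement.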
row,Sequence,PBM E-score
1,ATCGCCGA,-0.0867
2,AAAGATTT,0.0951
3,CATTCGCC,-0.0624
4,CGTTATCC,0.0746
5,CAACTCTG,-0.112
6,AACAGACC,0.0233
7,CTCGGATC,0.0635
8,CCTGACCG,-0.247
9,ACGCGGTA,-0.114
10,GTTCAGTA,0.0391
11,GCATATAC,-0.0829
12,CCGGTGCC,-0.301
13,AGGCTGTG,-0.16
14,ACCTAGCC,-0.273
15,AACCCGGA,0.0215
16,ATGCCATC,0.091
17,GGGCAAAA,0.106
18,ACGGGCAT,-0.0832
19,GCAGGGAC,-0.163
20,GAACGCTA,-0.125
21,GCTAGAGC,-0.243
22,GTATAGCA,0.165
23,CCTTCCAA,0.0613
24,TACACCTA,0.173
25,CATAGGCG,-0.0328

row,Sequence,PBM E-score
1,CACAACAC,0.107
2,CAGTCCGG,-0.322
3,ATTGCTCC,-0.049
4,CTACGGTC,-0.216
5,AAATCATT,1e-05
6,CTCCATTC,-0.0433
7,CACAGTAC,0.00208
8,CCCTTTTC,-0.0842
9,AGAATCCC,0.0372
10,CTCGGGGC,-0.098
11,AGCTTCGA,-0.144
12,AGGATTCG,0.0212
13,CATGAGTA,-0.00989
14,TCTGGACA,-0.0707
15,ACTGTCTC,-0.0312
16,ACTTAAGT,0.012
17,ATTGTGCG,-0.0502
18,ACAGAGCG,-0.195
19,GAGGGGAC,-0.0152
20,CATTACCG,-0.0622
21,CGATTAAC,0.0945
22,ACACATCA,0.0126
23,ACAGACCG,0.0357
24,CCCGTCTA,-0.0276
25,AATGGCAG,0.0479

row,Sequence,PBM E-score
1,ACATAACA,0.286
2,AGGTGACA,0.00628
3,ATATTTGA,0.22
4,ATGCCTTA,-0.11
5,AGTCACCA,-0.0986
6,AATCATGT,0.227
7,GGTCCTCA,-0.0981
8,GCCCATGA,-0.0238
9,GCACGCCC,-0.145
10,GAGTTTGC,-0.0356
11,CTAAGCTC,-0.122
12,ATGGTGCG,-0.027
13,ACGGCCCT,-0.194
14,CACTTAAG,0.0422
15,CTCAACAG,-0.128
16,CTATCTTA,0.106
17,GCTAAATA,0.124
18,CCGGGTGC,-0.186
19,CAAATGTA,0.268
20,GACGATTA,0.151
21,CCGACCCG,-0.0535
22,GGAGTTAC,0.0554
23,AATCACAC,0.0817
24,GAAGACGC,-0.118
25,CACCCCGG,-0.162

# A portion of the results above:
row,Sequence,PBM E-score
18,CCGGGTGC,-0.186
19,CAAATGTA,0.268

# (listing goes on)

row,Sequence,PBM E-score
1,AGGTTACT,-0.0428
2,CAGCGGAA,0.0943
3,CAATATCA,0.108
4,GTCAGAAC,-0.0522
5,GCGGAGTA,0.0459
6,ACCCGGGA,0.00162
7,CACAATCG,-0.0887
8,CCGCTAAC,0.0261
9,GAAACAGC,-0.0885
10,TAGGCGCA,-0.0242
11,CCATGGCA,-0.0412
12,CCTGCTAC,0.0069
13,ACAGAACA,0.136
14,ACTCCGCA,-0.106
15,AATGGGCC,-0.094
16,ATCACAGC,0.0907
17,CCCTGATC,-0.13
18,CCCATCAC,-0.103
19,CGAGAAGC,0.0379
20,CTGTCATA,0.0932
21,ACCGGTCG,-0.231
22,AGCGGAAC,0.048
23,GGACAATA,0.122
24,ATAGCGGA,0.0453
25,CTAGCTTA,0.256

row,Sequence,PBM E-score
1,AGAAAAAT,0.154
2,ACTCGAGG,-0.0419
3,CCTTGCCG,-0.0854
4,GACAGCGC,-0.101
5,GACGGAAC,0.0876
6,TTATCCAA,0.178
7,AGGTCTGA,-0.073
8,AGCAGTGG,-0.0673
9,CTGCGACC,-0.211
10,AACGCCGA,-0.12
11,AGAATTGA,0.0267
12,GTTAGTGA,0.047
13,ACGTGTGC,-0.0913
14,AAAGTCGG,-0.115
15,AGAACAAG,0.198
16,AATGATCC,-0.0795
17,AAGAGGCA,-0.125
18,AAGTAGCT,-0.0241
19,GTTGTATA,0.133
20,CACGTGCC,-0.0768
21,AGTTAGAG,-0.0783
22,CTGTTTCC,-0.16
23,CCAAGCAA,0.0163
24,AGACTCTG,-0.00683
25,AAAAATGT,0.0261

row,Sequence,PBM E-score
1,GCCATAGC,-0.158
2,CCTGTAAC,0.0246
3,AAATCATC,0.135
4,AGGAAATC,0.128
5,ACGTTGCG,0.00162
6,CCACAAAA,0.139
7,CCCAACAC,-0.0295
8,ACTATAAT,0.27
9,CACTATGA,0.0374
10,ATCAAACG,0.0519
11,GCGATCGA,0.246
12,ACTTCGGC,-0.0187
13,ATTGAAAA,0.235
14,GCTAATTA,0.243
15,ATCCCGAT,0.152
16,ACCCTTCC,-0.0557
17,CAGATTCA,-0.0836
18,GTGGTAAA,-0.0874
19,GATTCTGC,0.118
20,ACCGTGCA,-0.0977
21,CCAGAATA,0.0691
22,AAAAACTC,-0.0235
23,AACATCTA,-0.0777
24,CCAACTAA,0.186
25,CACGGTCC,-0.335

row,Sequence,PBM E-score
1,CCACTTCA,-0.0834
2,ATTACTGC,0.22
3,GTAGAGAA,0.0426
4,AGCTCCCA,-0.153
5,CGGTTTAA,-0.0878
6,CGTTAGGA,0.0891
7,CACTATTA,0.178
8,CATCAGAC,0.0451
9,ACGCCCAT,0.0611
10,ACCCATGG,-0.0337
11,CGATATTA,0.355
12,GCAGAAAA,0.124
13,CCATGAGG,-0.119
14,CGGAAGAC,-0.0333
15,CTTTAGCA,-0.128
16,GCCTTAAA,0.0308
17,ACATGTGG,0.123
18,AAGTTGGA,0.0299
19,CGCGGCCC,0.0293
20,GAGCTGAC,0.115
21,CTTTCATC,0.0295
22,TCATACGA,0.108

# Some of the entries so far, bar-delimited.
row | Sequence | PBM E-score
3 | CAATATCA | 0.108
4 | GTCAGAAC | -0.0522
5 | GCGGAGTA | 0.0459
6 | ACCCGGGA | 0.00162
7 | CACAATCG | -0.0887
8 | CCGCTAAC | 0.0261
